PubChem BioAssay AID504786, Drosophila RNAi Screening Center, 2011
Aim: 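Fly genes required for HIF-dependent transcription when hypoxia is mimicked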 (primary screen). System: Drosophila S2 cells with a stable HIF luciferase reporter. Reagent: long dsRNA against Drosophila genes, about 0.2 µg dsRNA per well of a 384-well plate. Duration: three days of knock-down, then 20 h of DFO before reading. Challenge: desferrioxamine (DFO) at 100 µM, an iron chelator that mimics hypoxia, for 20 h. Measurement: 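HIF reporter luminescence in cells given 100 µM DFO for 20 h, using the mouse ldh-a hypoxia-response element, scored as per-plate z-scores; higher means greater loss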. Direction: z-score: higher = stronger loss of HIF reporter signal.
The screen tested about 21,000 reagents; shown is a random part of those with a known target gene and a result. 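Primary screen; positive scores mean lost reporter signal, so the sign may be inverted from the usual convention.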 A plus sign joins genes that one reagent is predicted to hit. Not all columns of the deposit are shown. No sequences are given here.

z-score, replicate 1, by target gene and reagent
Mic26-27 (GeneID 41959): DRSC15913 -0.2
bves (GeneID 33083): DRSC20520 -0.4; DRSC20554 -0.4; DRSC20555 -0.5
CG14961 (GeneID 38414): DRSC08420 -0.2
CG4080 (GeneID 39079): DRSC10398 -0.2
CG3036 (GeneID 33695): DRSC00260 -0.1; DRSC00562 -0.3
CG11113 (GeneID 35659): DRSC06039 -0.2
Art2 (GeneID 33631): DRSC00627 -0.3
bero (GeneID 35355): DRSC03211 -0.4
CG13053 (GeneID 50274): DRSC09934 -0.2
CG11406 (GeneID 37877): DRSC04010 -0.2; DRSC04108 -0.3
mRpS6 (GeneID 38535): DRSC08470 0.7
CG13359 (GeneID 31028): DRSC18539 -0.3
CG12674 (GeneID 33384): DRSC00348 -0.1
Frmd5 (GeneID 34398): DRSC02802 -0.3
jus (GeneID 43453): DRSC14861 -0.7; DRSC14862 -0.2
CG14756 (GeneID 35798): DRSC06491 -0.2
DIP1 (GeneID 43981): DRSC20818 0
Sur (GeneID 34350): DRSC03447 -0.1
CG5623 (GeneID 41904): DRSC15848 -0.2
CG2006 (GeneID 43472): DRSC15412 -0.4
Ebp (GeneID 38009): DRSC04048 -0.2
CG2681 (GeneID 31258): DRSC18464 -0.2
ocn (GeneID 43567): DRSC17020 -0.2
CG5399 (GeneID 41900): DRSC15791 -0.2
CG18764 (GeneID 59239): DRSC15391 -0.1
Con (GeneID 38590): DRSC08652 -0.3
CG15602 (GeneID 32533): DRSC19671 -0.4
CG9568 (GeneID 34227): DRSC03265 -0.2
CG11131 (GeneID 40511): DRSC11636 -0.2
CG34260 + cmpy: DRSC11701 -0.1
CG11927 (GeneID 33687): DRSC00337 -0.4
Ir75b (GeneID 8673994): DRSC10189 -0.2
Mal-A8 (GeneID 35830): DRSC07234 -0.2
sel (GeneID 36046): DRSC06232 -0.3
CG13428 (GeneID 37317): DRSC06390 -0.1
E(spl)mdelta-HLH (GeneID 43150): DRSC16698 0
CG32655 (GeneID 318143): DRSC18925 -0.4
sut1 (GeneID 35774): DRSC07700 -0.3
CG2909 (GeneID 31958): DRSC18241 1.3
CG31913 (GeneID 319023): DRSC00892 -0.2
CG18598 (GeneID 42188): DRSC15356 -0.5
dgt2 (GeneID 34610): DRSC02548 -0.2
fliI (GeneID 33110): DRSC20578 0.1
CG14564 (GeneID 40425): DRSC11725 -0.3
Ubr1 (GeneID 32687): DRSC20148 -0.5

Entries listed so far whose target name begins with J or j (2):
z-score, replicate 1, by target gene and reagent
jus (GeneID 43453): DRSC14861 -0.7; DRSC14862 -0.2

The list goes on:
z-score, replicate 1, by target gene and reagent
tai (GeneID 34242): DRSC02207 -0.3; DRSC02673 -0.3
CG14022 (GeneID 33763): DRSC02352 -0.2
Dyrk2 (GeneID 34831): DRSC03610 -0.4
T48 (GeneID 43235): DRSC16878 -0.3
CG4025 (GeneID 31177): DRSC18523 0.1
CG30350 (GeneID 246556): DRSC07690 -0.3
crq (GeneID 33219): DRSC00810 -0.1
CG14204 (GeneID 32950): DRSC19559 -0.6
Syx18 (GeneID 42933): DRSC14628 -0.3
Rrp4 (GeneID 37731): DRSC04434 -0.1
rept (GeneID 40092): DRSC11388 3.2
CG7333 (GeneID 42334): DRSC16229 -1.3
CG14147 (GeneID 39227): DRSC10149 -0.3
strat (GeneID 34142): DRSC03069 -0.1
CG13239 (GeneID 40503): DRSC11694 -0.2
UbcE2M (GeneID 38916): DRSC10828 -0.5
CG42323 (GeneID 32825): DRSC19629 -0.3
betaTub97EF (GeneID 43359): DRSC15666 1.6; DRSC15667 -0.4; DRSC15668 -0.3
Ddr (GeneID 3346209): DRSC00922 -0.4; DRSC00923 -0.4; DRSC02150 0; DRSC03229 -0.3; DRSC03230 -0.2
CG42306 + Gint3: DRSC06934 -0.2
CG17078 (GeneID 33195): DRSC00484 -0.2
CG13049 (GeneID 39788): DRSC09930 -0.4
CG9500 (GeneID 33888): DRSC03237 -0.3
CG11608 (GeneID 41556): DRSC14334 -0.2
RpS2 (GeneID 34309): DRSC03614 6.8
CG7366 (GeneID 38918): DRSC10825 -0.4
